PubChem BioAssay AID1159590 | NIAID, 2016
Test: 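Effect of gene knock-down on p65 moving into nuclei after TLR2 stimulation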. Cell system: mouse RAW264.7 macrophage reporter cells expressing GFP-p65 and a Tnf promoter-mCherry. Reagents: single siRNA against mouse genes. Duration: 48 to 72 hours after siRNA transfection, then 40 minutes of ligand. Treatment: Pam3CSK4 (TLR2/1 agonist) for 40 minutes before fixation; dose not given. Detection: 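p65 nuclear translocation measured by high-content imaging, shown for each siRNA as a robust z-score averaged across replicates, relative to negative controls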. Reading the numbers: p65 nuclear entry z-score: higher = more p65 moved into nuclei than in negative-control wells. Call rule: In these data the active calls have p65 nuclear entry z-score, replicate mean at about -1.5 or lower, or at about 1.5 or higher. Meaning of the calls: active = strong change, up or down; inactive = little change.
Here is an unselected part of 756 deposited reagents. Over the whole deposit, 128 (17%) are marked active. 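Calls are two-sided: both reduced and increased p65 nuclear entry count as active.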 Reagents against one gene are numbered here. Not stated in the record: the amount of reagent.

p65 nuclear entry z-score, replicate mean, by gene and reagent
Pik3r1 (phosphoinositide-3-kinase regulatory subunit 1): #1 -0.55 inactive; #2 -0.66 inactive; #3 -0.0717 inactive; #4 -1.67 active; #5 -1 inactive; #6 -1.38 inactive
Atf7 (activating transcription factor 7): #1 -1.71 active; #2 -1.06 inactive; #3 0.097 inactive; #4 -0.0173 inactive; #5 6.52 active; #6 0.0653 inactive
Nfkb2: #1 0.11 inactive; #2 -0.088 inactive; #3 -0.543 inactive; #4 1.34 inactive; #5 -0.895 inactive; #6 0.916 inactive
Pik3r2 (phosphoinositide-3-kinase regulatory subunit 2): #1 -0.184 inactive; #2 0.319 inactive; #3 -2.48 active; #4 0.444 inactive; #5 0.623 inactive; #6 0.707 inactive
Tab3 (TGF-beta activated kinase 1/MAP3K7 binding protein 3): #1 -0.415 inactive; #2 -1.14 inactive; #3 -0.595 inactive; #4 0.105 inactive; #5 0.279 inactive; #6 -0.337 inactive
Tirap: #1 -1.89 active; #2 -0.108 inactive; #3 -3.38 active; #4 -1.35 inactive; #5 0.215 inactive; #6 -1.91 active
Dab2ip (disabled 2 interacting protein): #1 -0.834 inactive; #2 0.503 inactive; #3 -0.979 inactive; #4 6.1 active; #5 1.96 active; #6 -0.654 inactive
Rela (Rela proto-oncogene, NFKB subunit): #1 -1.23 inactive; #2 -0.305 inactive; #3 -0.354 inactive; #4 2.05 active; #5 -1.22 inactive; #6 -0.26 inactive
Itgax (integrin alpha X): #1 -0.0883 inactive; #2 -1.51 active; #3 -1.18 inactive; #4 0.634 inactive; #5 1.13 inactive; #6 -0.659 inactive
Mapk10 (mitogen-activated protein kinase 10): #1 0.799 inactive; #2 0.994 inactive; #3 -1.43 inactive; #4 0.17 inactive; #5 -0.832 inactive; #6 -1.22 inactive
Tank (TRAF family member-associated Nf-kappa B activator): #1 1.26 inactive; #2 3.95 active; #3 0.589 inactive; #4 -0.593 inactive; #5 0.888 inactive; #6 -0.924 inactive
Dusp1 (dual specificity phosphatase 1): #1 0.375 inactive; #2 0.0217 inactive; #3 0.0326 inactive; #4 1.24 inactive; #5 -0.978 inactive; #6 -0.858 inactive
Sigirr: #1 -1.67 active; #2 -2.15 active; #3 -0.691 inactive; #4 -0.244 inactive; #5 -0.839 inactive; #6 -0.514 inactive

Copied from the list.
Mapk10 (mitogen-activated protein kinase 10) #2, Outcome → inactive
Sigirr #3, p65 nuclear entry z-score, replicate mean = -0.691
Under “p65 nuclear entry z-score, replicate mean”, Dusp1 (dual specificity phosphatase 1) #2 shows 0.0217
Result for Pik3r1 (phosphoinositide-3-kinase regulatory subunit 1) #1 under “p65 nuclear entry z-score, replicate mean”: -0.55
Entry for Itgax (integrin alpha X) #6 under “Outcome”: inactive
